The assay addresses T1, Lectin, mannose-binding 2 (LMAN2) (human (endogenous in BC cells)) (UniProt Q12907).
T1 sequence: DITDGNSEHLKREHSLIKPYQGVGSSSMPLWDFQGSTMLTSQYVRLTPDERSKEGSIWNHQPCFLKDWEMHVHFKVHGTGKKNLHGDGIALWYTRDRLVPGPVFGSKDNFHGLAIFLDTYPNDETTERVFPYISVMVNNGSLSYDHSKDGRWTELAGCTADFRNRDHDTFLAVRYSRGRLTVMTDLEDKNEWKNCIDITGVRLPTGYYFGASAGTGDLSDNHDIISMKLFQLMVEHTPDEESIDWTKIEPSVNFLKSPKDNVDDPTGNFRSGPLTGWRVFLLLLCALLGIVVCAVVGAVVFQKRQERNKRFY
The assay is described as follows: co-IP; BC cells lysed in NP-40 lysis buffer; supernatant incubated with anti-LMAN2 at 4°C overnight, protein A/G agarose 6 h at 4°C; Western blot; anti-IgG as negative control. On the technique in general: A western blot detects proteins with antibodies after separation by electrophoresis.

The record followed here is paper PMC11609576.

No constants are given. Whether binding was seen depends on the method and setting. Binding seen in cells or lysates may run through a third protein. Some binding calls cover weakened binding; strength is not graded here.

As to MAPK9 (from UniProt P45984 1-424), the binding entry was “binds”.
